In assay [1] the target is P25 as BiFC fusion (P25-nYFP and P25-cYFP) (potato virus X) (UniProt P09396). The experiment in a line: split reporter; BiFC with halves of YFP; agroinfiltration of H2B-RFP transgenic N. benthamiana leaves; fluorescence at 72 hr postinfiltration.
For assay [2], the target named is β-glucuronidase (GUS) as BiFC fusion (GUS-cYFP and GUS-nYFP) (UniProt P05804). The description is as above.

Protein sequences, listed by entry. Tags and fused reporters are not part of them.
UniProt P09396: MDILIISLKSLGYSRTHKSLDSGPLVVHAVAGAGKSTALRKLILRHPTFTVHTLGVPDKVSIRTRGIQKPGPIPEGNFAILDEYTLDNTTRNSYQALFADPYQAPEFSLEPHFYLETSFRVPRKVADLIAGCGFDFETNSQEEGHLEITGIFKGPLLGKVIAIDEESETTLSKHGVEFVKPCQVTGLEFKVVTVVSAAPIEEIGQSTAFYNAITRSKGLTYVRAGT
UniProt P05804: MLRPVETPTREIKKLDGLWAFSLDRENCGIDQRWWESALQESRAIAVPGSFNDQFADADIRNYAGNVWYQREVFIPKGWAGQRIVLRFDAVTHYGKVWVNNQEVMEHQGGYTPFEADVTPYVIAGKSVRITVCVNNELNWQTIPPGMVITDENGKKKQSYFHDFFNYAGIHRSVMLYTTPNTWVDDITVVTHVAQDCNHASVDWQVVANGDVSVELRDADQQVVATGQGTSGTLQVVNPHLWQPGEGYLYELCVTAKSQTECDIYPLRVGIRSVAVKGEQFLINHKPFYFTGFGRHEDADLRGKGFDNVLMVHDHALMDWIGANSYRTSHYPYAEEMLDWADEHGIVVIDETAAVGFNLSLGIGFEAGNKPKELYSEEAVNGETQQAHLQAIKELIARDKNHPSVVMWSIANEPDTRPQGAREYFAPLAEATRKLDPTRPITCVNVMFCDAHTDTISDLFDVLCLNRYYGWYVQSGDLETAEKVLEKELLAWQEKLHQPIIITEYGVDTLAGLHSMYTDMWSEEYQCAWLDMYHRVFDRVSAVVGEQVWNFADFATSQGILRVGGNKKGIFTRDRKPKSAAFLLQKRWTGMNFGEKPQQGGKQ

Results are given in words; binding and its absence hold for the method and conditions named. Binding seen in cells or lysates may run through a third protein. Some entries that bind do so weakly or less than the wild type.

With “β-glucuronidase (GUS) as BiFC fusion (GUS-cYFP and GUS-nYFP) (from UniProt P05804 1-603) (enzyme)”, in assay [1], the binding result is “no binding”.

Turning to “P25 as BiFC fusion (P25-nYFP and P25-cYFP) (from UniProt P09396 1-226)”, the binding entry is on record as “binds” in assay [1] and “no binding” in assay [2].

Values taken from article PMC7549001.
